## Percent effect of library compounds

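Whole-cell growth test on Mycobacterium tuberculosis, read after 4 days in a medium based on cholesterol and the lipid DPPC; the read-out is not stated. Compounds at 50 µM. Higher reads as more growth inhibition (inferred: compounds with an IC50 in retests scored well above the rest). Of about 69,000 compounds tested this way, about 370 (0.54%) reached 50% or more in at least one test.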

Values are the deposited “Percent Effect”, in %. The controls that fix the scale are not given in the record; negative values are as filed. Compounds were drawn at random from those tested, without regard to their results. Two or more numbers in one place are separate tests of the same structure; such repeats can differ widely.

| SMILES | percent effect |
|---|---|
| `Cn1cccc1C(=O)Nc1cc(F)ccc1OCC1CCCO1` (stereo not given) | 10.99% |
| `CCOC(=O)C(C)Nc1cccc(COCc2ccco2)c1` (stereo not given) | 0.9787% |
| `N#Cc1cccc(NC(=O)N2CCC3(CCC(=O)N(C4CC4)C3)CC2)c1` | 2.806% |
| `COc1ccccc1[C@@H]1CN(Cc2ccncc2)C[C@H]1C(=O)O` | -49.64% |
| `CNC(=O)C1(c2cnccn2)CCCN1C(=O)Cc1ccsc1` (stereo not given) | -3.966% & 1.431% |
| `CCC(NCc1ccccc1C)c1ccccc1OCC(=O)NC` (stereo not given) | -23.92% |
| `Cc1c(CN2C[C@@H](O)[C@H](Oc3cccc(F)c3)C2)cnn1C` | 1.492% |
| `CC(C)c1cc(NCC2(Cn3cccn3)CC2)n2nccc2n1` | 15.61% |
| `O=C(N1CCOCC1)N1CCc2ncnc(Oc3cccnc3)c2CC1.O=C(O)C(F)(F)F` | 4.995% |
| `COCCOc1ccc(NC(=O)N2CCCC2c2ccncc2)cn1` (stereo not given) | -0.3526% |
| `CN(Cc1cc(-c2cccnc2)no1)C(=O)c1cccn1C` | 11.28% |
| `Cc1noc(C)c1C(=O)NCCN1CCN(S(C)(=O)=O)CC1` | -2.202% |
| `CC(C)CN1C(=O)C2(CCCC2)NC1c1cccnc1` (stereo not given) | -21.69% |
| `O=C(O)C(F)(F)F.[H][C@@]12CCN(Cc3ccccc3)C[C@]1([H])[C@H](C(=O)N(C)C)CCO2` | -20.7% & -4.186% |
| `Cl.O=C1CC2(CCCNC2)C(=O)N1Cc1ccc(Cl)cc1` (stereo not given) | 13.21% |
| `c1ccc(CCCN2CCN(c3ccc4nncn4n3)CC2)cc1` | 15.3% |
| `CN(C)CCN1CC(C(=O)N2CCC(c3nccn3C)CC2)CC1=O` (stereo not given) | -5.318% |
| `[H][C@]12CC[C@]([H])(CN(Cc3ccccc3)C1)N(C(=O)OCC)C2` | 26.34% |
| `CCOC(=O)CCNC(=O)N1CCCC(CNC(=O)c2ccco2)C1` (stereo not given) | -18.28% |
| `NS(=O)(=O)N1CCc2ccc(NC(=O)Cc3ccccc3F)cc21` | -2.213% |
| `Cc1ccc(Cl)cc1NCc1nc2[nH]c(C)c(C)c(=O)n2n1` | 6.852% |
| `CCc1nc2n(n1)CC(NCc1cnn(-c3ccccc3)n1)CC2` (stereo not given) | 4.995% |
| `O=C(O)C(F)(F)F.O=C(O)C(F)(F)F.[H][C@]12C[C@@H](CN3CCCC3)N(c3nccs3)[C@@]1([H])CCN(C(=O)CC)C2` | 6.129% |
| `CN(Cc1ccsc1)C(=O)c1cccc(S(=O)(=O)NC(C)(C)C)c1` | -8.705% |
| `CCSc1ncc(-c2cc(C3CCC3)nc(N)c2C#N)cn1` | -26.46% & -2.503% |
| `CN1CCN(C(=O)Cc2cccc(F)c2)Cc2cccnc21.O=C(O)C(F)(F)F` | -12.58% |
| `O=C(c1ccncc1)N1CCC(Oc2cccc(C(F)(F)F)c2)CC1` | 5.962% |
| `CC(C)(C)Cc1noc2ncc(C(=O)N3CCCSCC3)cc12` | 9.087% |
| `CN1C(=O)C2(CCN(S(C)(=O)=O)CC2)c2cc(F)ccc21.Cl` | -16.13% |
| `COc1ccnc(N2CCN(C(=O)CCc3cnn(C)c3)CC2)n1` | 7.458% |
| `COc1ccccc1C(=O)N1CCCC1c1ncc2c(n1)CCNC2.Cl` (stereo not given) | -21.68% |
| `O=C(O)C(F)(F)F.O=C(O)C(F)(F)F.O=C(O)C(F)(F)F.[H][C@@]12CCN(Cc3ccncc3)C[C@]1([H])[C@@H](CN(C)Cc1ccco1)OC2` | -4.295% |
| `c1cnc(NCC2Cn3nnc(-c4ccoc4)c3CO2)nc1` (stereo not given) | -5.542% & -7.856% |
| `CN(C)C(=O)N1Cc2ccccc2C2(CCN(C3CCOCC3)CC2)C1` | 25.94% |
| `O=C(Cc1ccc2c(c1)CCC2)NC1CCN(Cc2ccccc2)CC1` | -13.43% |
| `CC(C)N(C)Cc1cn2c(n1)CN(C(=O)c1ccc[nH]1)CC2` | -11.13% & -10.67% |
| `CN(C)C[C@H]1O[C@H](Cc2cc(-c3ccccn3)on2)CC[C@@H]1O` | 24.83% |
| `Cc1[nH]nc(CCC(=O)N2CCc3c(nc[nH]c3=O)C2)c1C` | -2.204% |
| `CCS(=O)(=O)N1CCC(NC(=O)c2cc(C(C)C)ccc2O)CC1` | -2.49% |
| `c1ccc(Cc2noc(CN(Cc3cccs3)CC3CCCO3)n2)cc1` (stereo not given) | 43.67% |
| `CN(C)S(=O)(=O)NCCn1nc(-c2ccccc2)n(C)c1=O` | -15.83% |
| `[H][C@]12CNC[C@@]1(C(=O)NCCCOC(C)C)CN(S(C)(=O)=O)C2` | -10.84% |
| `COc1cccc(Cc2nnc(SC3CCOC3=O)o2)c1` (stereo not given) | 10.39% |
| `Cc1nc(CN2C(=O)CCC23CCN(Cc2ccco2)CC3)cs1` | 18.3% |
| `Cc1nc(C)n(CC2CCCCN2Cc2cscn2)n1` (stereo not given) | -1.784% |
| `CCc1cnc(CN2CCC(N(C)Cc3noc(C)n3)C2)o1` (stereo not given) | -28.5% |
| `CN(C)CC(c1ccccc1)N(C)C(=O)c1cccc(NCC(=O)O)c1` (stereo not given) | 5.124% |
| `CCn1nc(C)c(C(=O)N2C[C@@H](CN(C)C)[C@@H](CO)C2)c1C` | -0.2646% |
| `Cc1nnc(-c2cccc(C#N)c2)n1C1CCN(C(C)C)C1=O` (stereo not given) | 10.8% |
| `Cc1cc(C)n(CC(=O)N2CCCCC2CCc2cccs2)c(=O)n1` (stereo not given) | -10.15% & -17.62% |
| `CNS(=O)(=O)c1ccc(CN2CCC(c3ccncc3)CC2)cc1` | -19.59% |
| `O=C(O)C(F)(F)F.[H][C@@]12CCN(CC3CCOCC3)C[C@]1([H])O[C@@H](C(=O)N1CCC(C)CC1)C2` | 7.103% |
| `O=C(COC1CCCC1)N1CCC(C(O)c2ccc(F)cc2)CC1` (stereo not given) | 7.356% |
| `CC(C)NC(=O)CCNC(=O)c1c(Br)c2ccccc2n1C` | 2.646% |
| `Cc1ccc(N(C)C2CCN(C(=O)c3n[nH]c4c3CCC4)CC2)nn1` | 4.866% |
| `CC(=O)NC1CCN(C(=O)Nc2cccc(C(F)(F)F)c2)CC1` | -24.21% |
| `CCn1ccnc1CN1CCN(CCC(=O)NC2CCCCC2)CC1` | -7.042% |

The first 4 entries again:

{"smiles": "Cn1cccc1C(=O)Nc1cc(F)ccc1OCC1CCCO1", "stereo": "stereo not given", "percent effect": 10.99}
{"smiles": "CCOC(=O)C(C)Nc1cccc(COCc2ccco2)c1", "stereo": "stereo not given", "percent effect": 0.9787}
{"smiles": "N#Cc1cccc(NC(=O)N2CCC3(CCC(=O)N(C4CC4)C3)CC2)c1", "percent effect": 2.806}
{"smiles": "COc1ccccc1[C@@H]1CN(Cc2ccncc2)C[C@H]1C(=O)O", "percent effect": -49.64}

Measurements from “University of Dundee, Small-Polar-MMV Screening Library” (2021), ChEMBL document CHEMBL3988442.